In PMC6283417, “The structure of the RbBP5 β-propeller domain reveals a surface with potential nucleic acid binding sites” one finds binding data, which are given here for one substance.

Sequences of proteins named here, by UniProt entry; tags and fusion partners are left off. Residues count along the entry.
UniProt Q8BX09, residues 1-340: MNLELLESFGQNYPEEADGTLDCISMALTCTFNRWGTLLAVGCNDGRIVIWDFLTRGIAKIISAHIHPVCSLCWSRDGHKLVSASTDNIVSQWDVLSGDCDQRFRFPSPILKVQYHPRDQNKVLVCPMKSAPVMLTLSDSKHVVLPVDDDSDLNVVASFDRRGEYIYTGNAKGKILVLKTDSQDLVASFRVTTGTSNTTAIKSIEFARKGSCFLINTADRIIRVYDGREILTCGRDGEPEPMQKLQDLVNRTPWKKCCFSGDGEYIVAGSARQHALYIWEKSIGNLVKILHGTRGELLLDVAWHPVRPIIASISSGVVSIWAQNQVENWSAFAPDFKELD

No constants are given. Whether binding was seen depends on the method and setting.

The experiment addresses RbBP5 (1–340) (mouse) (UniProt Q8BX09). Put plainly: 1H-15N HSQC NMR spectrum; 40–50 μM 15N-labeled RbBP5(1–340), 10 mM Tris–HCl, 75 mM NaCl, pH 7.2, 10% D2O, 37°C; both purified.

“RbBP5 (1–340) (from UniProt Q8BX09 1-340) (domain or fragment)”: the binding entry is listed as “no binding (tested: 40–50 μM)”.
